Results as given in PMC11841300.
No constants are given. Whether binding was seen depends on the method and setting. Binding seen in cells or lysates may run through a third protein. Some results given as binding are weak or reduced against the parent protein; the word gives no strength.

Target: T1, KAT8 (human (endogenous in HEK293T)) (UniProt Q9H7Z6)
T1 sequence: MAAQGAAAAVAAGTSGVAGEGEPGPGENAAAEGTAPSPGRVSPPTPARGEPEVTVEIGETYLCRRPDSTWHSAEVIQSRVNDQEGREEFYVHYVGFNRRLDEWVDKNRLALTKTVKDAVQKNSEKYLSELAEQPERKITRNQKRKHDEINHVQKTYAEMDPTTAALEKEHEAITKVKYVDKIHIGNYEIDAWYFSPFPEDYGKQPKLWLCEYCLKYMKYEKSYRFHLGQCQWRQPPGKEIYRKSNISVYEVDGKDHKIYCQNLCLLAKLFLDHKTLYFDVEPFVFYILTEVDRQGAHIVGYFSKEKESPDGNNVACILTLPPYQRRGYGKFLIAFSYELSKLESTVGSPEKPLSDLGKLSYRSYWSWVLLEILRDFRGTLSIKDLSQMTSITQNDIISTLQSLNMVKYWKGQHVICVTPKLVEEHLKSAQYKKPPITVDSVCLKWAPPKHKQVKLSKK
Assay: co-IP; HEK293T cell lysates (IP lysis buffer); anti-KAT8 or anti-SEPP1 antibody at 4 °C overnight, Protein A/G agarose, eluates analysed by western blot; normal IgG as negative control

B1: Selenoprotein P (SEPP1) (protein, UniProt P49908 20-381)
chain: ESQDQSSLCKQPPAWSIRDQDPMLNSNGSVTVVALLQASUYLCILQASKLEDLRVKLKKEGYSNISYIVVNHQGISSRLKYTHLKNKVSEHIPVYQQEENQTDVWTLLNGSKDDFLIYDRCGRLVYHLGLPFSFLTFPYVEEAIKIAYCEKKCGNCSLTTLKDEDFCKRVSLATVDKTVETPSPHYHHEHHHNHGHQHLGSSELSENQQPGAPNAPTHPAPPGLHHHHKHKGQHRQGHPENRDMPASEDLQDLQKKLCRKRCINQLLCKLPTDSELAPRSUCCHCRHLIFEKTGSAITUQCKENLPSLCSUQGLRAEENITESCQURLPPAAUQISQQLIPTEASASURUKNQAKKUEUPSN
  binding: binds
